Measured values reported in PubChem BioAssay AID1347076 (National Center for Advancing Translational Sciences (NCATS), 2019).
The campaign covered roughly 400,000 compounds. About 13,000 (3.2%) were called active. This list was built around the results that the source calls inconclusive (neither active nor inactive); the mix of calls is not that of the screen. Calls come from the whole dose curve; as a rule, active = well fitted cell-killing curve with a large enough effect; inconclusive = small, poorly fitted or top-dose-only effect, or effect the other way; inactive = flat fitted curve, though single readings scatter. Potencies beside an inconclusive call are fits to weak or partial responses and may not hold up.

Assay: qHTS assay for MDR1-selective chemotherapeutics: Primary screen using the drug-selected MDR subline cells KB-V1; note: nearly all actives have a fitted effect of over 60% in size
Conditions: KB-V1 MDR cells viability, CellTiter-Glo, 72 h; activity change, negative = cytotoxicity: at 46.1 µM (top of the series)
How it was run: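 Cytotoxicity via CellTiter-Glo luminescence after 72 h compound exposure at 37 degrees C. Cells: drug-selected KB-V1 line, DMEM phenol-red free plus 10% FBS. Compounds tested at multiple concentrations; normalized data fitted to concentration-effect curves.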
% is set by controls: 0 for no effect and ±100 for the full control effect; potency is the fitted concentration of half-maximal effect.

Structure (SMILES) | activity change, negative = cytotoxicity | Potency
Cc1c(NS(=O)(=O)c2ccc3c(c2)OCCO3)cccc1-c1nc2cccnc2s1 | inactive: 4.34% | –
CCOC(=O)C1C(=O)C=C(c2ccc(OC)cc2)CC1c1ccco1 (stereo unspecified) | – | active: 11.6 µM
COc1ccc(NC(=O)c2cc(C)nc3ccccc23)cc1S(=O)(=O)N1CCOCC1 | – | inconclusive: 29.1 µM [rising, single point]
CCC(C)C(NC(=O)c1ccc(Cl)cc1)C(=O)O (stereo unspecified) | – | inconclusive: 25.9 µM [rising, single point]
CCc1n[nH]c(=S)n1/N=C/c1ccccn1 | inactive: 6.87% | –
CCOC(=O)Cc1nnc(NC(=O)C(CC)Sc2nncn2C)s1 (stereo unspecified) | – | inconclusive: 8.2 µM [rising, partial curve, poor fit]
Cc1cc(-c2csc(N)n2)c(C)n1C | – | inconclusive: 23.1 µM [rising, single point]
CNS(=O)(=O)c1cccc(C(=O)OCC(=O)NC(C)CCc2ccccc2)c1 (stereo unspecified) | inactive: 12.2% | –
CCOc1ccc(NS(=O)(=O)c2cnc(Cl)c(Cl)c2)cc1 | – | inconclusive: 18.4 µM [cytotoxic, single point]
Cc1cccc(N2CCN(CC(O)COCc3cccs3)CC2)c1C (stereo unspecified) | inactive: 0% | –
COc1cc(NC(=O)c2cccc(COCC(F)(F)C(F)F)c2)cc(OC)c1OC | – | inconclusive: 23.1 µM [cytotoxic, single point]
Cc1ccc(C)c(N2CCN(C(c3ccccc3)c3nnc(-c4ccccc4)o3)CC2)c1 (stereo unspecified) | – | inconclusive: 16.4 µM [cytotoxic, single point]
CC1CN(Cc2cc(=O)oc3cc(O)c(Cl)cc23)CC(C)O1 (stereo unspecified) | inactive: 8.04% | –
Cc1ccccc1-c1nc(CN2CCC(C(=O)O)CC2)c(C)o1 | inconclusive: 28.4% | –
Cc1cccc(C)c1OCC(O)CN(Cc1ccccc1O)C1CCCCC1 (stereo unspecified) | – | inconclusive: 16.4 µM [cytotoxic, single point]
COc1ccc(-n2cc(-c3ccccc3)c3c(N4CCOCC4)ncnc32)cc1 | – | active: 16.4 µM
O=C(O)C1CCCCC1C(=O)Nc1ccccc1F (stereo unspecified) | – | inconclusive: 14.6 µM [cytotoxic, partial curve]
O=C(C1=C(O)C(=O)N(CCOCCO)C1c1ccccn1)c1cccs1 (stereo unspecified) | – | inconclusive: 23.1 µM [rising, single point]
Cc1ccc(C)c(C(C)NC(=O)CC#N)c1 (stereo unspecified) | inactive: 0% | –
COc1ccc(CN(Cc2ccco2)S(=O)(=O)c2ccc(S(=O)(=O)N3CCCC3)cc2)cc1 | – | inconclusive: 2.31 µM [cytotoxic, full curve, poor fit]
O=C(CCl)Nc1cccc(Oc2ccccc2)c1 | – | inconclusive: 18.4 µM [cytotoxic, single point]
Cc1ccc(S(=O)(=O)NN=Cc2cc(Cl)ccc2O)cc1 | inactive: -10.3% | –
C=CC[C@@H](CC(=O)N[C@H](CO)Cc1ccccc1)C(=O)NC[C@H](OC(=O)[C@@H](CC=C)Cc1ccc(F)cc1)c1ccccc1 | – | inconclusive: 23.1 µM [cytotoxic, single point]

For reference, part of the list above:
Structure (SMILES) | activity change, negative = cytotoxicity | Potency
Cc1cccc(N2CCN(CC(O)COCc3cccs3)CC2)c1C (stereo unspecified) | inactive: 0% | –
COc1cc(NC(=O)c2cccc(COCC(F)(F)C(F)F)c2)cc(OC)c1OC | – | inconclusive: 23.1 µM [cytotoxic, single point]
Cc1ccc(C)c(N2CCN(C(c3ccccc3)c3nnc(-c4ccccc4)o3)CC2)c1 (stereo unspecified) | – | inconclusive: 16.4 µM [cytotoxic, single point]
CC1CN(Cc2cc(=O)oc3cc(O)c(Cl)cc23)CC(C)O1 (stereo unspecified) | inactive: 8.04% | –
Cc1ccccc1-c1nc(CN2CCC(C(=O)O)CC2)c(C)o1 | inconclusive: 28.4% | –
Cc1cccc(C)c1OCC(O)CN(Cc1ccccc1O)C1CCCCC1 (stereo unspecified) | – | inconclusive: 16.4 µM [cytotoxic, single point]
COc1ccc(-n2cc(-c3ccccc3)c3c(N4CCOCC4)ncnc32)cc1 | – | active: 16.4 µM
O=C(O)C1CCCCC1C(=O)Nc1ccccc1F (stereo unspecified) | – | inconclusive: 14.6 µM [cytotoxic, partial curve]
O=C(C1=C(O)C(=O)N(CCOCCO)C1c1ccccn1)c1cccs1 (stereo unspecified) | – | inconclusive: 23.1 µM [rising, single point]
Cc1ccc(C)c(C(C)NC(=O)CC#N)c1 (stereo unspecified) | inactive: 0% | –
COc1ccc(CN(Cc2ccco2)S(=O)(=O)c2ccc(S(=O)(=O)N3CCCC3)cc2)cc1 | – | inconclusive: 2.31 µM [cytotoxic, full curve, poor fit]

(listing goes on)

Structure (SMILES) | activity change, negative = cytotoxicity | Potency
O=c1oc2ccccc2c(Nc2cc3ccccc3cc2O)c1[N+](=O)[O-] | – | inconclusive: 32.6 µM [cytotoxic, partial curve, poor fit]
Cc1ccccc1S(=O)(=O)Cc1ccc(C(=O)NCCN(Cc2ccccc2)C(C)C)o1 | – | inconclusive: 29.1 µM [cytotoxic, single point]
COc1ccccc1NC(=O)CSc1n[nH]c(-c2ccco2)n1 | – | inconclusive: 8.2 µM [rising, partial curve, poor fit]
O=C(CSc1nnc(-c2cccs2)n1-c1cccc(Cl)c1)c1cccc2c1OCCO2 | – | active: 8.2 µM
CC(=O)Nc1ccc(NC(=O)CN2C(=O)CCc3cc(S(=O)(=O)N4CCCCC4)ccc32)cc1 | inactive: 14.1% | –
Cc1csc2nc(O)c(C(=O)NCCN3CCOCC3)c(=O)n12 | – | inconclusive: 32.6 µM [cytotoxic, single point]
CSc1nc(N)nc(-c2cccs2)c1C#N | – | inconclusive: 29.1 µM [cytotoxic, single point]
Cn1c(=O)[nH]c2nnc(-c3ccc(Cl)c(Cl)c3)nc2c1=O | – | inconclusive: 16.4 µM [cytotoxic, single point]
CC(C)CC(N)c1csc(NC(=O)Nc2ccccc2C(C)(C)C)n1 (stereo unspecified) | – | active: 23.1 µM
Cc1ccc(C(=O)NCCCNC(=O)COc2ccc(Cl)c(C)c2)cn1 | – | inconclusive: 16.4 µM [cytotoxic, single point]
O=C(Cc1ccccc1[N+](=O)[O-])N/N=C/c1cccnc1 | – | inconclusive: 7.31 µM [rising, partial curve]
Cc1cccc(CNC(=O)CN2CC(C)Sc3ccccc32)c1 (stereo unspecified) | – | inconclusive: 16.4 µM [cytotoxic, single point]
CCN(Cc1ccccc1)C(=O)c1cccc(S(=O)(=O)N2CCN(c3ccccc3)CC2)c1 | – | inconclusive: 5.8 µM [cytotoxic, partial curve]
CCCCNC(=O)c1cc2nc(-c3ccc(OC)cc3)cc(C(F)(F)F)n2n1 | inactive: -33% | –
O=S(=O)(c1ccc(-c2ccon2)s1)N1CCN(CCN2CCOCC2)CC1 | inactive: -19.8% | –
O=C(NNC(=O)c1cc(Cl)nc2ccccc12)c1ccccc1F | – | inconclusive: 29.1 µM [cytotoxic, single point]
COc1ccc(C2CCCN2C(=S)Nc2ccc(C)c(C)c2)cc1OC (stereo unspecified) | – | inconclusive: 18.4 µM [cytotoxic, single point]
COCC1CCN(c2nc3nonc3nc2N2CCSCC2)C1 (stereo unspecified) | inactive: -25.4% | –
O=C1CC(c2cccc(F)c2)c2c(c3ccccc3[nH]c2=O)O1 (stereo unspecified) | – | inconclusive: 29.1 µM [rising, single point]
CN(CC(=O)Nc1ccccc1C(F)(F)F)C(=O)c1ccc(-c2ccc(Cl)cc2)o1 | – | inconclusive: 23.1 µM [cytotoxic, single point]
O=C(c1cccc2ccccc12)N1CCN=C1SCc1ccc([N+](=O)[O-])cc1 | inactive: -25.6% | –
N#CC1=C(N)Oc2n[nH]c(-c3cccs3)c2C1c1ccsc1 (stereo unspecified) | inactive: 0.452% | –
Cn1c(=O)c2c(nc(CN3CCCCC3)n2CCCc2ccccc2)n(C)c1=O | – | inconclusive: 7.31 µM [cytotoxic, partial curve, poor fit]
